Data published in the supplement of paper PMC10849652.
Some of the results follow.

Protein sequences, listed by entry. Tags and fused reporters are not part of them. Lines headed by an entry give the natural chain unless they say otherwise; changes in a name come on top.
UniProt Q9BXK1: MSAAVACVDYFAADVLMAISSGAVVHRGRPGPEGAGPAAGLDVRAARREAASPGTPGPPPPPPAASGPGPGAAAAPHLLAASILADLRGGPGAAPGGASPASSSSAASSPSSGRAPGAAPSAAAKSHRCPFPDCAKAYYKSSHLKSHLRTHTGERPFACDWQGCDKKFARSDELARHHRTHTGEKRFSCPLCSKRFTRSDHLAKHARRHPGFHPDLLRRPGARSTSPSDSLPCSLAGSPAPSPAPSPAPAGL
UniProt Q96EM0: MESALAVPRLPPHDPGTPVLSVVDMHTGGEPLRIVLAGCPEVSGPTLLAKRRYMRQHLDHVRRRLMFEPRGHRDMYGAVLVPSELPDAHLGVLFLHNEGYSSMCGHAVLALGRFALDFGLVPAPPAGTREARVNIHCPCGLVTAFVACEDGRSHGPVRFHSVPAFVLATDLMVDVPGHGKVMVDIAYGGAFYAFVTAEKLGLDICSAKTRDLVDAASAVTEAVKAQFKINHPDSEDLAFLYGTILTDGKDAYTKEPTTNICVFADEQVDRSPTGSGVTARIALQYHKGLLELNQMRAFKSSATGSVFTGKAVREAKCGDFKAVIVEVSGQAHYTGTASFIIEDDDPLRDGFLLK
UniProt P28838: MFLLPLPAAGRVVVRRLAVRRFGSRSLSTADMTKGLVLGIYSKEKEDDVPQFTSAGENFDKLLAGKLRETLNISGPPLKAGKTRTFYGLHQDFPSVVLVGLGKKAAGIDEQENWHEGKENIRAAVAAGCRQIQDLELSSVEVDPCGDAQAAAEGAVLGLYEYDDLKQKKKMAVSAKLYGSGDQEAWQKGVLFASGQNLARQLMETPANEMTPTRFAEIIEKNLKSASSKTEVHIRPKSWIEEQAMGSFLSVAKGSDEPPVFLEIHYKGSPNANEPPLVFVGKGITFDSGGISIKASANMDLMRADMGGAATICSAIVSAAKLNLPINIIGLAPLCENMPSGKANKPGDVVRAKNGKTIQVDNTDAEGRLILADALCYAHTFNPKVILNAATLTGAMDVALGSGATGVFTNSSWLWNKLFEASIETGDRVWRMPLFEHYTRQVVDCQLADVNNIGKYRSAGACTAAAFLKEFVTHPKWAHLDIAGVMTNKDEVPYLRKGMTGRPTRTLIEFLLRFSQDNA
UniProt Q96A73: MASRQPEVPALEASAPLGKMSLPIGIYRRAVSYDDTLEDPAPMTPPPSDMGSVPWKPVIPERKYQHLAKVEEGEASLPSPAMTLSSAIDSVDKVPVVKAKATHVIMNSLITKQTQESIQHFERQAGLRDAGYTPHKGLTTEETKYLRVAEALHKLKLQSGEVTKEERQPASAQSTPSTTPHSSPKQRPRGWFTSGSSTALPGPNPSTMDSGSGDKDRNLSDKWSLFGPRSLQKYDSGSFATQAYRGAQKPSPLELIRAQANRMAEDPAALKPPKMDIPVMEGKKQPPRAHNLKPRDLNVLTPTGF
UniProt Q8N6L1: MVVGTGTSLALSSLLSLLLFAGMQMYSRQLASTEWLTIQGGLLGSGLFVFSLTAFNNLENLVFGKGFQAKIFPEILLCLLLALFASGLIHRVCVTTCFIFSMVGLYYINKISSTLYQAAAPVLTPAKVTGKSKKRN
UniProt P23276: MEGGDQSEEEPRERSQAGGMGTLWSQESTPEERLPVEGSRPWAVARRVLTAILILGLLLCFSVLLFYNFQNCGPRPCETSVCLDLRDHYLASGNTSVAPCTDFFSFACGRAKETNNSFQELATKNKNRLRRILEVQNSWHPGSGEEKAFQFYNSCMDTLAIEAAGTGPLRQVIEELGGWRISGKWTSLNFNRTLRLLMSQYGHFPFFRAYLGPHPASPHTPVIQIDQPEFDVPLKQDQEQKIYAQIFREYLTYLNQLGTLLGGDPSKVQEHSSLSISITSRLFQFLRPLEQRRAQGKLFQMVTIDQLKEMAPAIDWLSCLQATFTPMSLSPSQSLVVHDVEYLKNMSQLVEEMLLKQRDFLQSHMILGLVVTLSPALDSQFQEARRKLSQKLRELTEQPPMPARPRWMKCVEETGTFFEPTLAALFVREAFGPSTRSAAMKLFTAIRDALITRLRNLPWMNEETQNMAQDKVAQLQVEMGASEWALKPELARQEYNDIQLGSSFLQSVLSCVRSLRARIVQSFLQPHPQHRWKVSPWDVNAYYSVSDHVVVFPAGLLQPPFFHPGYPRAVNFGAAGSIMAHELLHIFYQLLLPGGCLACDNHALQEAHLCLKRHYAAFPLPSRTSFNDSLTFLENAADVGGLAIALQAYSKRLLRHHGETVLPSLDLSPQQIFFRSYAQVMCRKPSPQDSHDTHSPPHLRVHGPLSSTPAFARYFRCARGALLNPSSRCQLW
UniProt Q8N4N3: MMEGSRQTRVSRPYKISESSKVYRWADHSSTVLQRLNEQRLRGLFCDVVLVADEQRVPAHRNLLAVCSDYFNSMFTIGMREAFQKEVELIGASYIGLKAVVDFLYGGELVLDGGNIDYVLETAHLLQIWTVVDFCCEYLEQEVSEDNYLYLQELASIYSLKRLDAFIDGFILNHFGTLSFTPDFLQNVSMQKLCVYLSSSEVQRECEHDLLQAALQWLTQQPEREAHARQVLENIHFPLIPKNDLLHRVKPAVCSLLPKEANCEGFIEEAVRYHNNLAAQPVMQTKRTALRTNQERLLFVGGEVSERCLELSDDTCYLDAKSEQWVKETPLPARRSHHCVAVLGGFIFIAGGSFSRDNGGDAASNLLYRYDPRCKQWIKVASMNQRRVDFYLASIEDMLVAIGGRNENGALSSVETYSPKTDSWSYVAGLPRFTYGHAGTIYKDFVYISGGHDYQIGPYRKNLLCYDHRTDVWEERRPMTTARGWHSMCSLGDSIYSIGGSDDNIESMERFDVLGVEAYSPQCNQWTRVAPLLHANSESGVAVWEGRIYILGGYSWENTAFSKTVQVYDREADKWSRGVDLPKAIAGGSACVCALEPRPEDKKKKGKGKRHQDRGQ
UniProt Q9NQT8: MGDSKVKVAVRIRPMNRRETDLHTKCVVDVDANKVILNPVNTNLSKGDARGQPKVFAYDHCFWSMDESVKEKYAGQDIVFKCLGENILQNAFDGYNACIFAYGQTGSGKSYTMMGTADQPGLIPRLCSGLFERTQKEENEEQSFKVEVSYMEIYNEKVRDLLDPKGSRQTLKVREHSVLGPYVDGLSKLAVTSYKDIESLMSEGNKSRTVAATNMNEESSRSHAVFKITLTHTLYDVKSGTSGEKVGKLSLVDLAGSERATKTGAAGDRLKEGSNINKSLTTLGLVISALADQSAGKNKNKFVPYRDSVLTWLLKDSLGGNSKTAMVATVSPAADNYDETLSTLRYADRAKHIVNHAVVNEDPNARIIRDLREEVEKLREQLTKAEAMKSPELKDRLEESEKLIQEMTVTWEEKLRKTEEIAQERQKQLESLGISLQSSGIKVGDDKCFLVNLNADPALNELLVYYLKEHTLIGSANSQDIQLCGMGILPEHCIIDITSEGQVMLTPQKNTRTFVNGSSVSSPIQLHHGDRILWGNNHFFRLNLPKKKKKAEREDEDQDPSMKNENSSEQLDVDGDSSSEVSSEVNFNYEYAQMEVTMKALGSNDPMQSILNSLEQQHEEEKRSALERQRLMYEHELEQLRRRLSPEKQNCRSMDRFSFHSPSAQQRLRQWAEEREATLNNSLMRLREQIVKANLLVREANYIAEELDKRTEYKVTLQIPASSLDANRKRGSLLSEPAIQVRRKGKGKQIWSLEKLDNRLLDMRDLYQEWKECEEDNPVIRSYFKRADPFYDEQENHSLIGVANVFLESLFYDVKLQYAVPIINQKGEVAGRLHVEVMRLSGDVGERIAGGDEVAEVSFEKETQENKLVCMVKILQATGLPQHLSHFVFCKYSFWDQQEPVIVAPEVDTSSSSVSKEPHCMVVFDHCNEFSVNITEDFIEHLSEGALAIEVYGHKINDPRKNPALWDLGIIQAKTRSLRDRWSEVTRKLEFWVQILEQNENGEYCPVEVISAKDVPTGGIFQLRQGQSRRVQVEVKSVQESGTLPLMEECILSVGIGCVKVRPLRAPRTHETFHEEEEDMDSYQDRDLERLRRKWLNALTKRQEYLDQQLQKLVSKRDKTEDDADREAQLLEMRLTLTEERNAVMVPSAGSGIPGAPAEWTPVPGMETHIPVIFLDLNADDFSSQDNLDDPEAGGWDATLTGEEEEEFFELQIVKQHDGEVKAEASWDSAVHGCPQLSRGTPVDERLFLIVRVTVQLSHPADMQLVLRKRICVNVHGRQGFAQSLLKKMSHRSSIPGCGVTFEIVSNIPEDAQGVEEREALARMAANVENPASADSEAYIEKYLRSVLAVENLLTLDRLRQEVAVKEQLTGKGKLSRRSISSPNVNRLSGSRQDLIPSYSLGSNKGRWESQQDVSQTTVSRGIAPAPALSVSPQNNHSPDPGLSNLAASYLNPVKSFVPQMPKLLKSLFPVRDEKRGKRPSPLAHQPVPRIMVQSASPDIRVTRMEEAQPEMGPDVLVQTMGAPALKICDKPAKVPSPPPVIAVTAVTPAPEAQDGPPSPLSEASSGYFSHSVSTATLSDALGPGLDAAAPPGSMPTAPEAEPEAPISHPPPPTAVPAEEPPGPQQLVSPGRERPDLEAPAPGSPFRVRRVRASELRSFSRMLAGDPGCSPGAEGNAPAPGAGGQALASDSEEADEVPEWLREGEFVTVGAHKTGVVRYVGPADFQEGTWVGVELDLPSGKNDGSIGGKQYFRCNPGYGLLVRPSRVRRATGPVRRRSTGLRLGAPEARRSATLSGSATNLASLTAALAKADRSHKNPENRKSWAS
UniProt Q9ULH0: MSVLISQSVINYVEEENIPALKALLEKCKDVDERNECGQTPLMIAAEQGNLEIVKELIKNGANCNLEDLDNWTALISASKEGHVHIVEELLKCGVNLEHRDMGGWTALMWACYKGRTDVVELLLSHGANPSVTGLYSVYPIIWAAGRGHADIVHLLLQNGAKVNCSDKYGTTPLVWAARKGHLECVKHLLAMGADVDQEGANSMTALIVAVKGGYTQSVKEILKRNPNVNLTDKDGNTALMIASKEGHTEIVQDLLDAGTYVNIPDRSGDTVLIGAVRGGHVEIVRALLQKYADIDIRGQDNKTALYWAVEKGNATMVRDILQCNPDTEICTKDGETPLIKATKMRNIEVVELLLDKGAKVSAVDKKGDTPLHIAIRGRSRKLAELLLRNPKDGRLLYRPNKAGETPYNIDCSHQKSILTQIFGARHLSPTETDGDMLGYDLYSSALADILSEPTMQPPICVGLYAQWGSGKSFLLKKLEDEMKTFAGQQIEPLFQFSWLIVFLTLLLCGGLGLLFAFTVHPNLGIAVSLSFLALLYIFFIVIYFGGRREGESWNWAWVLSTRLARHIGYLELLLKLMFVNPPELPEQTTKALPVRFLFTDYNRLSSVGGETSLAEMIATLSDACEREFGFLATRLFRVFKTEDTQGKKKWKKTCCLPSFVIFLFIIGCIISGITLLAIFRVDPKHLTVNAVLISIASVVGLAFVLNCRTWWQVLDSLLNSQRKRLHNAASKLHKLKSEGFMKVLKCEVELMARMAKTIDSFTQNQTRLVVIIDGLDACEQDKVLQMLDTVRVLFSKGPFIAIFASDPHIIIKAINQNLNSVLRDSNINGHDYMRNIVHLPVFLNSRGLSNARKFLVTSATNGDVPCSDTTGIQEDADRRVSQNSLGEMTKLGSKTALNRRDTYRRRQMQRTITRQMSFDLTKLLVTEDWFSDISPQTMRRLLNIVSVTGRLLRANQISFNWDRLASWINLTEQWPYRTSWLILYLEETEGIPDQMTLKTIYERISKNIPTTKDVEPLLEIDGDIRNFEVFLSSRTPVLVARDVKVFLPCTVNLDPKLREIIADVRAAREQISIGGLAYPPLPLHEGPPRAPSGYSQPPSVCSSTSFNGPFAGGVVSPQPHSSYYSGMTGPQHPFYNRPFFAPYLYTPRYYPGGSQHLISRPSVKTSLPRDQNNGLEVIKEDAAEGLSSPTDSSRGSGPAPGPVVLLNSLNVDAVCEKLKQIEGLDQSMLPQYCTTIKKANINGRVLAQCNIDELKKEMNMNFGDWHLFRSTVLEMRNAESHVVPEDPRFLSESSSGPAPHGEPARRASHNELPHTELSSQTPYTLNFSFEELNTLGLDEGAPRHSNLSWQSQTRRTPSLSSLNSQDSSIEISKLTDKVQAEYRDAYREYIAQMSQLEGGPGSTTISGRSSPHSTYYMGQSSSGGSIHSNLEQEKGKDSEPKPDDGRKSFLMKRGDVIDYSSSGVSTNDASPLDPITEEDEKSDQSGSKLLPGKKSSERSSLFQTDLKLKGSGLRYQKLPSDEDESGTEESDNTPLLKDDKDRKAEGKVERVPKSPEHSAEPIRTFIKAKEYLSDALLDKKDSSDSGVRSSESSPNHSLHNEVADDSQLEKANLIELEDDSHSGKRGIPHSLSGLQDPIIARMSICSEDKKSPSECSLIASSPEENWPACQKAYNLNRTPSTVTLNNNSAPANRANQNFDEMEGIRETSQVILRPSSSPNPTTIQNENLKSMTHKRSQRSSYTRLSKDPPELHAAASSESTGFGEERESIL

Columns and labels:
Assay in all cases: log2 fold change, soluble protein after heating vs DMSO (PISA); higher = thermal stabilisation; K562 lysate, 10 uM; active = over 0.2 and 3.5 SD of the protein, either way, in both replicates (recomputed)
[1] = compound: CN1CC[C@H](c2c(O)cc(O)c3c(=O)cc(-c4ccccc4Cl)oc23)[C@H](O)C1 [alvocidib]
Summary of the method: (§1)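 Dounce homogenisation of K562 pellets in PBS pH 7.4 with 1 mM MgCl2 produced a crude extract, used at 1 mg/mL protein. Exposure to 10 μM compound lasted 30 min, and aliquots were then heated for 3 min across 48°C-58°C, pooled and brought to 0.5% NP-40 at 4°C. The supernatant after 21,000xg for 90 min was quantified by TMTpro 16plex LC-MS/MS with channel sums equalised. Duplicate values are given as log-two fold change in thermal stability relative to solvent controls.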

[2] = compound: CN1CCc2c(c3ccccc3n2Cc2ccc(C(=O)NO)cc2)C1 [Tubastatin A]
Summary of the method: as §1

[3] = compound: CNC(=O)C1=CC=CC=C1NC2=NC(=NC=C2Cl)NC3=C(C=C(C=C3)N4CCOCC4)OC
Summary of the method: as §1

[4] = compound: CNC(=O)c1ccc(Nc2ncc(C(F)(F)F)c(NCc3nccnc3N(C)S(C)(=O)=O)n2)cc1 [defactinib]
Summary of the method: as §1

[5] = compound: CNc1nc(-c2ccc3c(N)n[nH]c3c2)cc(N2C[C@@H](C(=O)NC3CCCCC3)CC[C@H]2C)n1
Summary of the method: as §1

[6] = compound: COC(=O)N[C@@H](C)CNc1nccc(-c2cn(C(C)C)nc2-c2cc(Cl)cc(NS(C)(=O)=O)c2F)n1 [encorafenib]
Summary of the method: as §1

[7] = compound: COC(=O)[C@H](CCSC)NC(=O)C1=C(C=C(C=C1)NC[C@H](CS)N)C2=CC=CC=C2
Summary of the method: as §1

[8] = compound: COc1cc(Nc2ncc3c(n2)-c2ccc(Cl)cc2C(c2c(F)cccc2OC)=NC3)ccc1C(=O)O [alisertib]
Summary of the method: as §1

[9] = compound: COc1cc2nc(-c3cc(F)ccc3O)nc(N[C@@H]3CNC[C@H]3C(C)(C)O)c2cc1OC
Summary of the method: as §1

[10] = compound: COc1cc2ncnc(Nc3ccc(F)c(Cl)c3)c2cc1OCCCN1CCOCC1 [gefitinib]
Summary of the method: as §1

Target	log2 fold change [1]	log2 fold change [2]	log2 fold change [3]	log2 fold change [4]	log2 fold change [5]	log2 fold change [6]	log2 fold change [7]	log2 fold change [8]	log2 fold change [9]	log2 fold change [10]
KIF5A (UniProt Q12840)	inactive: 0.012	inactive: -0.041	inactive: -0.011	inactive: 0.001	inactive: -0.013	inactive: -0.002	inactive: 0.053	inactive: 0.001	inactive: -0.001	inactive: 0.013
KIAA2013 (UniProt Q8IYS2)	inactive: 0.056	inactive: 0.017	inactive: 0.057	inactive: 0.02	inactive: 0.071	inactive: 0.052	inactive: 0.021	inactive: -0.019	inactive: -0.031	inactive: 0.002
KNTC1 (UniProt P50748)	inactive: -0.012	inactive: -0.05	inactive: 0.006	inactive: 0.014	inactive: -0.053	inactive: 0.028	inactive: 0.004	inactive: 0.024	inactive: 0.002	inactive: 0.028
KLF16 (UniProt Q9BXK1)	inactive: -0.137	inactive: -0.049	inactive: 0.033	inactive: -0.026	inactive: -0.041	inactive: -0.182	inactive: 0.061	inactive: 0.042	inactive: -0.01	inactive: -0.008
KTI12 (UniProt Q96EK9)	inactive: -0.052	inactive: -0.072	inactive: 0.018	inactive: -0.017	inactive: 0.041	inactive: -0.027	inactive: -0.024	inactive: -0.018	inactive: 0	inactive: 0.01
LAMTOR3 (UniProt Q9UHA4)	inactive: -0.003	inactive: 0.052	inactive: -0.002	inactive: -0.05	inactive: 0.053	inactive: -0.017	inactive: -0.01	inactive: 0.009	inactive: -0.021	inactive: 0.033
L3HYPDH (UniProt Q96EM0)	inactive: 0.023	inactive: -0.052	inactive: 0.005	inactive: -0.012	inactive: 0.022	inactive: -0.017	inactive: 0.039	inactive: -0.019	inactive: -0.005	inactive: -0.013
KDM8 isoform 3 (UniProt Q8N371)	inactive: 0.004	inactive: 0.013	inactive: 0.019	inactive: 0.038	inactive: 0.121	inactive: -0.002	inactive: -0.059	inactive: -0.007	inactive: 0.011	inactive: 0
KLC4 isoform 3 (UniProt Q9NSK0)	inactive: -0.01	inactive: -0.091	inactive: -0.008	inactive: 0.014	inactive: -0.084	inactive: 0.014	inactive: 0.007	inactive: 0.014	inactive: 0.014	inactive: -0.028
KDSR (UniProt Q06136)	inactive: -0.021	inactive: 0.037	inactive: 0.006	inactive: -0.005	inactive: 0.045	inactive: 0.037	inactive: -0.118	inactive: -0.04	inactive: 0.017	inactive: -0.032
LAP3 (UniProt P28838)	inactive: -0.249	inactive: 0.082	inactive: 0.069	inactive: -0.063	inactive: 0.191	inactive: 0.006	inactive: 0.004	inactive: -0.02	inactive: 0.038	inactive: -0.004
KRR1 (UniProt Q13601)	inactive: 0.028	inactive: -0.033	inactive: -0.054	inactive: 0.01	inactive: -0.005	inactive: 0.092	inactive: 0.023	inactive: 0.032	inactive: 0.046	inactive: -0.014
KIFC1 (UniProt Q9BW19)	inactive: -0.022	inactive: -0.15	inactive: -0.013	inactive: -0.003	inactive: 0.024	inactive: -0.03	inactive: 0.14	inactive: 0.011	inactive: 0.008	inactive: -0.01
KNSTRN (UniProt Q9Y448)	inactive: 0.001	inactive: -0.062	inactive: 0.038	inactive: -0.029	inactive: 0.053	inactive: 0.074	active: -0.264	inactive: 0.043	inactive: -0.016	inactive: -0.022
KLHDC3 (UniProt Q9BQ90)	inactive: -0.012	inactive: -0.062	inactive: 0.123	inactive: 0.079	inactive: -0.014	inactive: 0.123	inactive: -0.057	inactive: 0.018	inactive: 0.025	inactive: -0.05
KNOP1 (UniProt Q1ED39)	inactive: -0.004	inactive: 0.151	inactive: 0.062	active: 0.413	inactive: 0.337	inactive: -0.023	inactive: 0.022	inactive: -0.065	inactive: 0.097	inactive: -0.03
KIAA0319L (UniProt Q8IZA0)	inactive: -0.016	inactive: 0.032	inactive: -0.029	inactive: -0.007	inactive: -0.007	inactive: 0.049	inactive: -0.013	inactive: 0.031	inactive: -0.001	inactive: 0.055
KIAA1191 (UniProt Q96A73)	inactive: -0.013	inactive: 0.012	inactive: 0.092	inactive: -0.057	inactive: 0.067	inactive: 0.03	inactive: -0.007	inactive: -0.024	inactive: 0.056	inactive: 0.001
LARP4 isoform 4 (UniProt Q71RC2)	inactive: -0.019	inactive: -0.113	inactive: 0.01	inactive: -0.054	inactive: -0.012	inactive: -0.009	inactive: 0.05	inactive: -0.007	inactive: -0.013	inactive: -0.077
LACTB2 (UniProt Q53H82)	inactive: -0.007	inactive: 0.042	inactive: 0.015	inactive: -0.01	inactive: 0.005	inactive: -0.006	inactive: -0.023	inactive: -0.009	inactive: -0.009	inactive: 0.017
KRTCAP2 isoform 2 (UniProt Q8N6L1)	inactive: -0.234	inactive: 0.016	inactive: -0.027	inactive: -0.013	inactive: -0.047	inactive: -0.043	inactive: -0.126	inactive: -0.052	inactive: -0.019	inactive: -0.115
KPNA2 (UniProt P52292)	inactive: 0.018	inactive: -0.083	inactive: -0.012	inactive: 0.012	inactive: -0.013	inactive: -0.005	inactive: 0.122	inactive: 0.008	inactive: -0.017	inactive: 0.003
KEL (UniProt P23276)	inactive: -0.015	inactive: 0.038	inactive: 0.01	inactive: -0.01	inactive: 0.021	inactive: 0.029	inactive: -0.05	inactive: -0.108	inactive: 0.075	inactive: -0.061
KLHL36 (UniProt Q8N4N3)	inactive: 0.046	inactive: 0.04	inactive: -0.032	inactive: 0.039	inactive: 0.017	inactive: 0.031	inactive: -0.078	inactive: 0.032	inactive: -0.009	inactive: -0.074
LACTB (UniProt P83111)	inactive: 0.065	inactive: 0.021	inactive: 0.05	inactive: 0.052	inactive: -0.033	inactive: 0.012	inactive: 0.014	inactive: -0.019	inactive: -0.012	inactive: 0.015
KIF13B (UniProt Q9NQT8)	inactive: 0	inactive: -0.047	inactive: -0.013	inactive: 0	inactive: 0.016	inactive: 0.039	inactive: 0.122	inactive: 0.023	inactive: 0.061	inactive: 0.006
KIF23 isoform 2 (UniProt Q02241)	inactive: -0.015	inactive: -0.096	inactive: -0.007	inactive: 0.101	inactive: 0.041	inactive: -0.008	inactive: -0.026	inactive: -0.07	inactive: -0.047	inactive: -0.008
KIDINS220 isoform 4 (UniProt Q9ULH0)	inactive: -0.004	inactive: -0.03	inactive: 0.01	inactive: 0.001	inactive: -0.017	inactive: 0.043	inactive: -0.002	inactive: 0.013	inactive: 0.011	inactive: 0.013
L2HGDH (UniProt Q9H9P8)	inactive: -0.015	inactive: 0.073	inactive: 0.049	inactive: -0.005	inactive: -0.02	inactive: 0.016	inactive: 0.076	inactive: -0.005	inactive: -0.028	inactive: -0.023

Given in CSV form: entries from further up
Target,log2 fold change [1],log2 fold change [2],log2 fold change [3],log2 fold change [4],log2 fold change [5],log2 fold change [6],log2 fold change [7],log2 fold change [8],log2 fold change [9],log2 fold change [10]
KIAA0319L (UniProt Q8IZA0),inactive: -0.016,inactive: 0.032,inactive: -0.029,inactive: -0.007,inactive: -0.007,inactive: 0.049,inactive: -0.013,inactive: 0.031,inactive: -0.001,inactive: 0.055
KIAA1191 (UniProt Q96A73),inactive: -0.013,inactive: 0.012,inactive: 0.092,inactive: -0.057,inactive: 0.067,inactive: 0.03,inactive: -0.007,inactive: -0.024,inactive: 0.056,inactive: 0.001
LARP4 isoform 4 (UniProt Q71RC2),inactive: -0.019,inactive: -0.113,inactive: 0.01,inactive: -0.054,inactive: -0.012,inactive: -0.009,inactive: 0.05,inactive: -0.007,inactive: -0.013,inactive: -0.077
LACTB2 (UniProt Q53H82),inactive: -0.007,inactive: 0.042,inactive: 0.015,inactive: -0.01,inactive: 0.005,inactive: -0.006,inactive: -0.023,inactive: -0.009,inactive: -0.009,inactive: 0.017
KRTCAP2 isoform 2 (UniProt Q8N6L1),inactive: -0.234,inactive: 0.016,inactive: -0.027,inactive: -0.013,inactive: -0.047,inactive: -0.043,inactive: -0.126,inactive: -0.052,inactive: -0.019,inactive: -0.115
KPNA2 (UniProt P52292),inactive: 0.018,inactive: -0.083,inactive: -0.012,inactive: 0.012,inactive: -0.013,inactive: -0.005,inactive: 0.122,inactive: 0.008,inactive: -0.017,inactive: 0.003
KEL (UniProt P23276),inactive: -0.015,inactive: 0.038,inactive: 0.01,inactive: -0.01,inactive: 0.021,inactive: 0.029,inactive: -0.05,inactive: -0.108,inactive: 0.075,inactive: -0.061
